# According to PubChem BioAssay AID2685 (National Center for Advancing Translational Sciences (NCATS), 2010):
# The list shows a part of the results. The main result of the screen is listed elsewhere. These columns were measured beside it and carry no call. Compounds called inactive in the main read-out are mostly missing here. Words in brackets tell the shape of the fitted curve; partial curves, single points and poor fits give uncertain potencies.
# Assay: qHTS Assay for Lipid Storage Modulators in Drosophila S3 Cells;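 on cell number change: cells counted by Cell Tracker Red CMTPX staining in the red channel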
# Settings: BODIPY lipid droplet fluorescence, 18-24 h; for cell number change: measured here: cell count max response, cells fed with added oleic acid
# Method in brief: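 Drosophila S3 cells got compounds at several concentrations plus oleic acid (400 uM solution). Laser-scanning cytometry with 488 nm excitation read lipid droplets at 500-530 nm and cells at 575-640 nm. Percent activity was relative to 20 uM Triacsin C.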
# [1] = measured here: cell number channel AC50, cells fed with added oleic acid
# [2] = measured here: lipid fluorescence (Fed channel) AC50, cells fed with added oleic acid
structure (smiles),measurement,setting,value
CCCN(CCC)C1CCc2ccc(O)cc2C1 (stereo unspecified),cell number change,,-38.3%
same,AC50,[1],"29.1 µM [falling, single point]"
same,AC50,[2],"5.8 µM [falling, full curve]"
Oc1cccc(/C=N/NP(=S)(c2ccccc2)c2ccccc2)c1,cell number change,,-19.2%
same,AC50,[2],"29.1 µM [falling, single point]"
COc1ccc(-c2csc(NC(=O)COC(=O)Cc3ccccc3)n2)cc1OC,cell number change,,116%
same,AC50,[1],"20.6 µM [rising, single point]"
same,AC50,[2],"1.03 µM [rising, partial curve]"
Cc1cc(/C=C2\C(=O)NC(=O)N(c3ccc(F)cc3)C2=O)c(C)n1-c1ccc(C(=O)O)cc1,cell number change,,-2.24%
same,AC50,[2],"4.61 µM [falling, full curve, poor fit]"
CCSC(=O)N1CCCCCC1,cell number change,,3.95%
same,AC50,[2],"0.00461 µM [rising, full curve, poor fit]"
COP(=S)(OC)SCN1C(=O)c2ccccc2C1=O,cell number change,,31.3%
same,AC50,[1],"4.61 µM [rising, partial curve]"
same,AC50,[2],"0.103 µM [rising, full curve, poor fit]"
COC(=O)C1=C(c2ccccc2OCc2ccccc2)C[C@@H]2CC[C@H]1N2C(=O)NCc1ccc(Br)cc1,cell number change,,-11%
same,AC50,[2],"1.16 µM [falling, single point]"
COC(=O)C1=C(c2cccc(C#N)c2)C[C@@H]2CC[C@H]1N2C(=O)NCCO,cell number change,,2.37%
same,AC50,[2],"0.146 µM [falling, full curve, poor fit]"
CC(Cc1ccccc1)N1C(=O)c2ccccc2C1=O (stereo unspecified),cell number change,,-22.8%
same,AC50,[2],"6.51 µM [falling, partial curve]"
CC1=C2[C@H]3OC(=O)[C@@H](C)[C@@H]3CC[C@@]2(C)C=CC1=O,cell number change,,-21%
same,AC50,[2],"0.731 µM [falling, full curve]"
O=C1/C(=C\c2cc3c(cc2Cl)OCO3)N2CCC1CC2,cell number change,,0.986%
same,AC50,[2],"6.51 µM [falling, single point]"
CCOP(=O)(Oc1ccccc1)c1c([N+](=O)[O-])cc(C(F)(F)F)cc1[N+](=O)[O-] (stereo unspecified),cell number change,,14.9%
O=c1c2ccccc2nc(-c2ccccc2Cl)n1-c1cccc(O)c1,cell number change,,-2.82%
same,AC50,[1],"0.461 µM [falling, single point]"
OC(CNC1CCCCC1)c1ccccc1 (stereo unspecified),cell number change,,-2.91%
same,AC50,[2],"0.058 µM [falling, full curve, poor fit]"
COC(=O)C1=C(c2ccccc2OCc2ccccc2)C[C@@H]2CC[C@H]1N2C(=O)NCc1ccc([N+](=O)[O-])cc1,cell number change,,-6.14%
same,AC50,[2],"6.51 µM [falling, single point]"
Cc1cc(NC(=O)CCC(=O)N2CCC3(CC2)OCCO3)no1,cell number change,,-18.4%
same,AC50,[1],"0.00366 µM [falling, full curve, poor fit]"
COCCCn1c(N)c(C(=O)NCc2ccco2)c2nc3ccccc3nc21,cell number change,,-48.7%
same,AC50,[1],"20.6 µM [falling, single point]"
C/C(=N\N(C)c1ccccc1)c1c(O)[nH]c(=O)[nH]c1=O,cell number change,,-40.7%
same,AC50,[1],"32.6 µM [falling, single point]"
same,AC50,[2],"23.1 µM [falling, partial curve, poor fit]"
Cc1cc(C(=O)OCC(=O)Nc2ccccc2F)c(C)n1C1CC1,cell number change,,-15.3%
C[C@H]1CC[C@@H]2[C@@H](C)[C@H]3[C@H](C[C@H]4[C@@H]5CC=C6C[C@@H](O[C@@H]7O[C@H](CO)[C@H](O)[C@H](O[C@@H]8O[C@H](CO)[C@@H](O)[C@H](O)[C@H]8O)[C@H]7O[C@@H]7O[C@@H](C)[C@H](O)[C@@H](O)[C@H]7O)CC[C@]6(C)[C@H]5CC[C@]34C)N2C1,cell number change,,-39.4%
same,AC50,[1],"29.1 µM [falling, single point]"
same,AC50,[2],"25.9 µM [falling, single point]"
O=C1NC(=O)C(=Cc2cn(CCOc3ccc4c(c3)OCO4)c3ccccc23)C(=O)N1,cell number change,,19.6%
C/C(=C\c1ccc(N(C)C)cc1)[N+](=O)[O-],cell number change,,-51.9%
same,AC50,[1],"10.3 µM [falling, partial curve]"
Cc1cccc(OP(=O)(Oc2cccc(C)c2)OC(c2ccccc2)C(F)(F)F)c1 (stereo unspecified),cell number change,,31.3%
same,AC50,[1],"4.11 µM [rising, partial curve]"
same,AC50,[2],"3.26 µM [rising, single point]"
Cc1ccc(N(C)C(=O)Oc2cccc3ccc(C)nc23)cc1,cell number change,,-9.24%
O=C(Nc1nncs1)Oc1ccccc1,AC50,[1],"25.9 µM [falling, single point]"
C[n+]1c2ccccc2nc2ccc(NCCO)cc21,cell number change,,-90.7%
same,AC50,[1],"29.1 µM [falling, single point]"
same,AC50,[2],"29.1 µM [falling, single point]"
Cc1cc(OCC(=O)N2CCC(C(=O)O)(c3ccccc3)CC2)c2c(C)c(C)c(=O)oc2c1,cell number change,,-2.03%
same,AC50,[2],"29.1 µM [rising, single point]"
CCn1c(O)c(C=Nc2ccc(S(N)(=O)=O)cc2)c(=O)n(CC)c1=S,cell number change,,-12.3%
same,AC50,[2],"2.06 µM [falling, partial curve]"
COc1ccc(-n2c(-c3ccccc3[N+](=O)[O-])nc3ccccc3c2=O)cc1,cell number change,,14.4%
same,AC50,[2],"29.1 µM [falling, single point]"
COC(=O)C1=C(c2cccc(C#N)c2)C[C@@H]2CC[C@H]1N2C(=O)NCCOc1ccccc1,cell number change,,-30.9%
same,AC50,[1],"29.1 µM [falling, single point]"
CCOc1ccc(C(Nc2ccc(C)cc2)P2(=O)OCCC(C)O2)cc1 (stereo unspecified),AC50,[2],"6.51 µM [rising, single point]"
O=C(CCn1c(=O)oc2ccccc21)N1CCC2(CC1)OCCO2,cell number change,,-16.6%
same,AC50,[2],"8.2 µM [rising, partial curve, poor fit]"
Fc1ccc(C2N3CCCN23)cc1 (stereo unspecified),cell number change,,-18.5%
same,AC50,[2],"16.4 µM [falling, single point]"
C[C@]12CC(=CO)C(=O)C[C@@H]1CC[C@@H]1[C@@H]2CC[C@@]2(C)[C@H]1CC[C@]2(C)O,cell number change,,-48.9%
same,AC50,[1],"16.4 µM [falling, partial curve]"
same,AC50,[2],"20.6 µM [falling, partial curve]"
Cc1ccc(-c2nc(N(C)C3CCN(C)CC3)c3ccccc3n2)cc1,cell number change,,-17.4%
